Experimental data as given in PubChem BioAssay AID256 (DTP/NCI, 2004).
The list shows only some results of the screen, not a fair sample: it is rich in T/C values a quarter to a half above the control, in often repeated tests (any T/C) and in doses without a T/C. Other doses and runs of a compound stand elsewhere. T/C: endpoint of the treated group in % of that of the vehicle group. Some entries give survivors of the animals treated and no T/C: the source files T/C as zero there, which appears to mark a toxic dose or a test without result, not a measured value. Some doses without a T/C left all or most animals alive at the check, yet need not have been tolerated: the source hardly ever lists a survival T/C far under the control, and the zero likely stands for such cases as well. Counts of survivors are from the toxicity check (mostly the fifth day) where no day follows; animals may have died later. Schedule codes are those of the source, taken here to give the interval after Q, in days (D) or hours (H), and the number of doses after X. Some entries were tested several times; their values stand side by side, smallest first. Some structures stand for samples that the source files as different forms (salt, stereo form or complex); doses refer to the form tested. For survival time, this PubChem deposit counts one and a half times the control or more as active, and values a quarter to a half above the control carry no call in these data; other NCI protocols may use other cut-offs. Some T/C values carry the count of animals alive at the toxicity check (mostly the fifth day); where none is given, no animal had died by that day.

System: CD2F1 mice, L1210 leukemia ip, survival T/C
Experiment: NCI In Vivo Anticancer Drug Screen. Data for tumor model L1210 Leukemia (intraperitoneal) in CD2F1 (CDF1) mice
Settings: higher T/C = longer survival
Summary of the method: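 Activity against a transplanted murine tumor was judged by comparing the compound group with a vehicle group. The outcome in the treated animals was divided by that in the controls.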

[1] = T/C endpoint: mean survival time, dose: 200.0 mg/kg/injection, schedule: Q04DX003 (ip), vehicle: saline
[2] = T/C endpoint: mean survival time, dose: 400.0 mg/kg/injection, schedule: Q04DX003 (ip), vehicle: saline
[3] = T/C endpoint: mean survival time, dose: 400.0 mg/kg/injection, schedule: Q04DX003 (ip), vehicle: saline with Tween-80
[4] = T/C endpoint: mean survival time, dose: 200.0 mg/kg/injection, schedule: Q01DX009 (ip), vehicle: saline with Tween-80
[5] = T/C endpoint: mean survival time, dose: 50.0 mg/kg/injection, schedule: Q04DX003 (ip), vehicle: saline with Tween-80
[6] = T/C endpoint: mean survival time, dose: 12.5 mg/kg/injection, schedule: Q01DX009 (ip), vehicle: saline with Tween-80
[7] = T/C endpoint: mean survival time, dose: 100.0 mg/kg/injection, schedule: Q01DX001 (ip), vehicle: saline with Tween-80
[8] = T/C endpoint: mean survival time, dose: 100.0 mg/kg/injection, schedule: Q04DX002 (ip), vehicle: saline with Tween-80
[9] = T/C endpoint: mean survival time, dose: 200.0 mg/kg/injection, schedule: Q04DX002 (ip), vehicle: saline with Tween-80
[10] = T/C endpoint: mean survival time, dose: 400.0 mg/kg/injection, schedule: Q04DX002 (ip), vehicle: saline with Tween-80
[11] = T/C endpoint: mean survival time, dose: 100.0 mg/kg/injection, schedule: Q04DX003 (ip), vehicle: saline with Tween-80
[12] = T/C endpoint: mean survival time, dose: 200.0 mg/kg/injection, schedule: Q04DX003 (ip), vehicle: saline with Tween-80
[13] = T/C endpoint: mean survival time, dose: 400.0 mg/kg/injection, schedule: Q01DX009 (ip), vehicle: saline with Tween-80

CCC(C)C(C(=O)OCC[N+](C)(CC)CC)c1ccc(C)c(C)c1 (stereo unspecified)
survivor count (T/C endpoint: mean survival time, dose: 100.0 mg/kg/injection, schedule: Q04DX003 (ip), vehicle: saline): 0 of 6 | survivor count [1]: 0 of 6 | survivor count [2]: 0 of 6

Nc1nc(SCC(=O)c2ccccc2)c2[nH]cnc2n1
T/C (T/C endpoint: mean survival time, dose: 264.0 mg/kg/injection, schedule: Q04DX003 (ip), vehicle: saline with Tween-80): 134 % of control | T/C (T/C endpoint: mean survival time, dose: 400.0 mg/kg/injection, schedule: Q04DX003 (ip), vehicle: saline sonified): 143 % of control | T/C [3]: 145 % of control

CNc1nc(N(C)C)nc(N(C)C)n1
survivor count (T/C endpoint: mean survival time, dose: 200.0 mg/kg/injection, schedule: Q01DX009 (ip), vehicle: saline): 6 of 6 | survivor count (T/C endpoint: mean survival time, dose: 200.0 mg/kg/injection, schedule: Q01DX009 (ip), vehicle: water): 6 of 6

N=c1nc2n(cc1F)[C@@H]1O[C@H](CO)[C@@H](O)[C@@H]1O2
T/C (T/C endpoint: mean survival time, dose: 25.0 mg/kg/injection, schedule: Q01DX009 (ip), vehicle: saline): 138 % of control | T/C (T/C endpoint: mean survival time, dose: 34.0 mg/kg/injection, schedule: Q04DX003 (ip), vehicle: saline): 126 % of control | T/C (T/C endpoint: mean survival time, dose: 800.0 mg/kg/injection, schedule: Q01DX009 (ip), vehicle: saline): 132 % of control | T/C (T/C endpoint: median survival time, dose: 32.0 mg/kg/injection, schedule: Q01DX005 (ip), vehicle: saline): 140 % of control | T/C (T/C endpoint: median survival time, dose: 64.0 mg/kg/injection, schedule: Q01DX005 (ip), vehicle: saline): 148 % of control | T/C (T/C endpoint: median survival time, dose: 128.0 mg/kg/injection, schedule: Q01DX005 (ip), vehicle: saline): 148 % of control

CCOC(=O)CCCN(C)C(C)(C)C#N
survivor count [4]: 3 of 6

CCn1c(=O)c2[nH]c(Cl)nc2n(CC)c1=O
survivor count (T/C endpoint: mean survival time, dose: 200.0 mg/kg/injection, schedule: Q04DX003 (ip), vehicle: Klucel (hydroxypropylcellulose) (HPC)): 5 of 6

COC1CC2C=C(C)/C=C/C=C/C(=O)NC(c3ccccc3)C/C=C/CCC(O)CC(=O)C2=C1O (stereo unspecified)
survivor count (T/C endpoint: median survival time, dose: 25.0 mg/kg/injection, schedule: Q01DX009 (ip), vehicle: Klucel (hydroxypropylcellulose) (HPC)): 0 of 6 | survivor count (T/C endpoint: median survival time, dose: 50.0 mg/kg/injection, schedule: Q01DX009 (ip), vehicle: Klucel (hydroxypropylcellulose) (HPC)): 0 of 6

C=COCC(C)C (tested in a mixture with another compound)
survivor count (T/C endpoint: mean survival time, dose: 6.25 mg/kg/injection, schedule: Q04DX003 (ip), vehicle: other): 2 of 6 | survivor count (T/C endpoint: mean survival time, dose: 25.0 mg/kg/injection, schedule: Q04DX003 (ip), vehicle: saline with Tween-80): 5 of 6 | survivor count (T/C endpoint: mean survival time, dose: 37.5 mg/kg/injection, schedule: Q01DX009 (ip), vehicle: saline): 0 of 6 | survivor count [5]: 0 of 6 | survivor count (T/C endpoint: mean survival time, dose: 75.0 mg/kg/injection, schedule: Q01DX009 (ip), vehicle: saline): 0 of 6 and 2 of 6 | survivor count (T/C endpoint: mean survival time, dose: 150.0 mg/kg/injection, schedule: Q01DX009 (ip), vehicle: saline): 0 of 6

CCCCCCCCCCCCCCNC(=O)Nc1ccc(Cl)c(Cl)c1
survivor count (T/C endpoint: mean survival time, dose: 400.0 mg/kg/injection, schedule: Q04DX003 (ip), vehicle: other): 6 of 6

S=P(Cc1ccccc1)(c1ccccc1)c1ccccc1
survivor count [4]: 6 of 6 | survivor count [3]: 6 of 6

CCC(C)OP(=S)(S)OC(C)CC.[Zn+2] (stereo unspecified)
survivor count (T/C endpoint: mean survival time, dose: 1.5 mg/kg/injection, schedule: Q01DX009 (ip), vehicle: saline with Tween-80): 3 of 3 | survivor count (T/C endpoint: mean survival time, dose: 6.25 mg/kg/injection, schedule: Q01DX009 (ip), vehicle: saline with Tween-80): 3 of 3 and 6 of 6 | T/C [6]: 88 [5 of 6 alive], 91, 92 % of control | survivor count [6]: 6 of 6 | survivor count (T/C endpoint: mean survival time, dose: 25.0 mg/kg/injection, schedule: Q01DX009 (ip), vehicle: saline with Tween-80): 5 of 6 and 3 of 3 | survivor count (T/C endpoint: mean survival time, dose: 50.0 mg/kg/injection, schedule: Q01DX001 (ip), vehicle: saline with Tween-80): 0 of 6 | survivor count (T/C endpoint: mean survival time, dose: 50.0 mg/kg/injection, schedule: Q01DX009 (ip), vehicle: saline with Tween-80): 0 of 3 and 1 of 6 | survivor count [5]: 0 of 6 | survivor count [7]: 0 of 6 | survivor count [8]: 0 of 6 and 1 of 3 | survivor count [9]: 0 of 6 | survivor count [10]: 0 of 6

Oc1ccccc1C=NCC[N-]CCN=Cc1ccccc1O.[Co]
survivor count [1]: 2 of 6 | survivor count [2]: 0 of 6

CCCCC#CCOCC(O)CCl (stereo unspecified)
survivor count (T/C endpoint: mean survival time, dose: 400.0 mg/kg/injection, schedule: Q01DX009 (ip), vehicle: water): 0 of 6

CCCCCCCCCC[n+]1ccc(C(N)=O)cc1
survivor count [11]: 3 of 6 | survivor count [12]: 0 of 6 | survivor count [3]: 0 of 6

Nc1nc(-c2cccc3ccccc23)cc2ccccc12
survivor count [13]: 0 of 6 and 2 of 6

NC(N)=N/N=C/c1ccc(Cl)c(Cl)c1
survivor count [11]: 6 of 6 | survivor count [12]: 5 of 6 | survivor count [3]: 3 of 6

C=C1C(=O)OC2CC(C)C3C=CC(=O)C3CC12 (stereo unspecified)
survivor count (T/C endpoint: mean survival time, dose: 2.0 mg/kg/injection, schedule: Q01DX009 (ip), vehicle: Klucel (hydroxypropylcellulose) (HPC)): 2 of 6 | survivor count (T/C endpoint: mean survival time, dose: 4.69 mg/kg/injection, schedule: Q01DX009 (ip), vehicle: Klucel (hydroxypropylcellulose) (HPC)): 1 of 6 | survivor count (T/C endpoint: mean survival time, dose: 9.38 mg/kg/injection, schedule: Q01DX009 (ip), vehicle: Klucel (hydroxypropylcellulose) (HPC)): 0 of 6 | survivor count (T/C endpoint: mean survival time, dose: 18.75 mg/kg/injection, schedule: Q01DX009 (ip), vehicle: Klucel (hydroxypropylcellulose) (HPC)): 0 of 6 | survivor count (T/C endpoint: mean survival time, dose: 37.5 mg/kg/injection, schedule: Q01DX009 (ip), vehicle: Klucel (hydroxypropylcellulose) (HPC)): 3 of 6 | survivor count (T/C endpoint: mean survival time, dose: 75.0 mg/kg/injection, schedule: Q01DX009 (ip), vehicle: Klucel (hydroxypropylcellulose) (HPC)): 0 of 6

COc1ccc(-n2c(=O)c(N=Nc3ccccc3)c(O)n(-c3ccccc3OC)c2=S)cc1
survivor count [7]: 3 of 6 | survivor count (T/C endpoint: mean survival time, dose: 200.0 mg/kg/injection, schedule: Q01DX001 (ip), vehicle: saline with Tween-80): 3 of 6 | survivor count (T/C endpoint: mean survival time, dose: 400.0 mg/kg/injection, schedule: Q01DX001 (ip), vehicle: saline with Tween-80): 0 of 6

Cc1ccc(S(=O)(=O)NC(=O)OCCc2c3ccccc3nc3ccccc23)cc1
survivor count (T/C endpoint: mean survival time, dose: 400.0 mg/kg/injection, schedule: Q04DX002 (ip), vehicle: other): 0 of 3 | survivor count [10]: 0 of 3

CC(C)(C(=O)O)C(C)(C)C(=O)O
survivor count (T/C endpoint: mean survival time, dose: 6.25 mg/kg/injection, schedule: Q01DX001 (ip), vehicle: saline): 1 of 3 | survivor count (T/C endpoint: mean survival time, dose: 12.5 mg/kg/injection, schedule: Q01DX001 (ip), vehicle: saline): 0 of 3 | survivor count (T/C endpoint: mean survival time, dose: 25.0 mg/kg/injection, schedule: Q01DX001 (ip), vehicle: saline): 0 of 3

COc1ccccc1/C(C)=N\NC(=O)c1ccccc1
survivor count [13]: 3 of 6

CS(=O)(=O)c1nnc(S(C)(=O)=O)s1
survivor count (T/C endpoint: mean survival time, dose: 25.0 mg/kg/injection, schedule: Q04DX003 (ip), vehicle: saline sonified): 3 of 6 | survivor count (T/C endpoint: mean survival time, dose: 50.0 mg/kg/injection, schedule: Q04DX003 (ip), vehicle: saline sonified): 0 of 6 | survivor count [11]: 3 of 6 | survivor count [12]: 0 of 6 | survivor count [3]: 0 of 6

CC(C)OC(=O)Nc1ccncc1
survivor count (T/C endpoint: mean survival time, dose: 50.0 mg/kg/injection, schedule: Q04DX002 (ip), vehicle: saline with Tween-80): 0 of 3 | survivor count [8]: 0 of 3 | survivor count [9]: 0 of 3 | survivor count [10]: 0 of 3

C[n+]1ccc(Cc2ccccc2)cc1
survivor count (T/C endpoint: mean survival time, dose: 100.0 mg/kg/injection, schedule: Q04DX002 (ip), vehicle: saline): 0 of 3 | survivor count (T/C endpoint: mean survival time, dose: 200.0 mg/kg/injection, schedule: Q04DX002 (ip), vehicle: saline): 0 of 3 | survivor count (T/C endpoint: mean survival time, dose: 400.0 mg/kg/injection, schedule: Q04DX002 (ip), vehicle: saline): 0 of 3
